Drawing on article PMC9498672, this text covers binding for four molecules.

Sequences of proteins named here, by UniProt entry; tags and fusion partners are left off.
UniProt P31751: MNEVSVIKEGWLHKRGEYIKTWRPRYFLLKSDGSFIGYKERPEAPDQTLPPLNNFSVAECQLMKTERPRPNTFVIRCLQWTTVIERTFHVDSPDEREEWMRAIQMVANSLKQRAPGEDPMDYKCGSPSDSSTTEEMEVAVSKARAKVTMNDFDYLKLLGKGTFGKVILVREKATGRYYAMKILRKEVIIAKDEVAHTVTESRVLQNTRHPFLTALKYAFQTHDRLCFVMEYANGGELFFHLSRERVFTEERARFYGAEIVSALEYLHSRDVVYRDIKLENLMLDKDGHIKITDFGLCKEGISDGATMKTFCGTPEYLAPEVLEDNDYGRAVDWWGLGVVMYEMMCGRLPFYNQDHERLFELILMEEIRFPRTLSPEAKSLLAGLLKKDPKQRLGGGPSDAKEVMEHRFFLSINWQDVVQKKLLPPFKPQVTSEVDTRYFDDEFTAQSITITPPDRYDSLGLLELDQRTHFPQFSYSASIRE
UniProt Q96SB4: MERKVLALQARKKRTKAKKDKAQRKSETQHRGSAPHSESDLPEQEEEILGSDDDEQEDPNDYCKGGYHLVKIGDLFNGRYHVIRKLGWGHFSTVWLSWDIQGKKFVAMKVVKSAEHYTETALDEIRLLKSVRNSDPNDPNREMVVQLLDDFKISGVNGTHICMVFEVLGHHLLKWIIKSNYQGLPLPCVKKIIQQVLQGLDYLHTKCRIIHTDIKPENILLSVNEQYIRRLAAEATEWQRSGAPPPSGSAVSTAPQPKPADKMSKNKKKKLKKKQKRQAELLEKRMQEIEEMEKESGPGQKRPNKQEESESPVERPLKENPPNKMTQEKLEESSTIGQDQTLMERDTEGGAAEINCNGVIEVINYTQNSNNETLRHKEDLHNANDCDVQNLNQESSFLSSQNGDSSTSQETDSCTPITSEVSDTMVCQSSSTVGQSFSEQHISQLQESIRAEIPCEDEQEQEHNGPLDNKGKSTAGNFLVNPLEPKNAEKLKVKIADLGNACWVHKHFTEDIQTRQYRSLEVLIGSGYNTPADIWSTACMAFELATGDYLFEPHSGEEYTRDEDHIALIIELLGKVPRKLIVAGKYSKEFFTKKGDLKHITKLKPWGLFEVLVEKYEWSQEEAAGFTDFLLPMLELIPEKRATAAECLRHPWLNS
UniProt P49759: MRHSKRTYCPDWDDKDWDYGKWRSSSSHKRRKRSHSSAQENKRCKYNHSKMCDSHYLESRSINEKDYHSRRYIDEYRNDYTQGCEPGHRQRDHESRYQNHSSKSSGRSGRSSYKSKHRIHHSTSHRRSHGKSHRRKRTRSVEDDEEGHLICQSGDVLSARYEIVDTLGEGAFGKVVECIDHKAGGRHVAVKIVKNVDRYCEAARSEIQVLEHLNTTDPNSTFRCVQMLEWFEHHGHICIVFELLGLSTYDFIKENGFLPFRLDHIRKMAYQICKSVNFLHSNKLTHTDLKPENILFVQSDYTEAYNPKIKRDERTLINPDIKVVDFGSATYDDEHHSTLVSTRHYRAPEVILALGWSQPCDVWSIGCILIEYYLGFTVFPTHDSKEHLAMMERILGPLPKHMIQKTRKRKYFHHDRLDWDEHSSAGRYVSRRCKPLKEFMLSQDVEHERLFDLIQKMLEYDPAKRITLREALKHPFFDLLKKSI

Test [1] concerns the target T1, RNA binding motif 20 (RBM20), wild type, 8xHis-tagged (UniProt E9PT37).
T1 sequence: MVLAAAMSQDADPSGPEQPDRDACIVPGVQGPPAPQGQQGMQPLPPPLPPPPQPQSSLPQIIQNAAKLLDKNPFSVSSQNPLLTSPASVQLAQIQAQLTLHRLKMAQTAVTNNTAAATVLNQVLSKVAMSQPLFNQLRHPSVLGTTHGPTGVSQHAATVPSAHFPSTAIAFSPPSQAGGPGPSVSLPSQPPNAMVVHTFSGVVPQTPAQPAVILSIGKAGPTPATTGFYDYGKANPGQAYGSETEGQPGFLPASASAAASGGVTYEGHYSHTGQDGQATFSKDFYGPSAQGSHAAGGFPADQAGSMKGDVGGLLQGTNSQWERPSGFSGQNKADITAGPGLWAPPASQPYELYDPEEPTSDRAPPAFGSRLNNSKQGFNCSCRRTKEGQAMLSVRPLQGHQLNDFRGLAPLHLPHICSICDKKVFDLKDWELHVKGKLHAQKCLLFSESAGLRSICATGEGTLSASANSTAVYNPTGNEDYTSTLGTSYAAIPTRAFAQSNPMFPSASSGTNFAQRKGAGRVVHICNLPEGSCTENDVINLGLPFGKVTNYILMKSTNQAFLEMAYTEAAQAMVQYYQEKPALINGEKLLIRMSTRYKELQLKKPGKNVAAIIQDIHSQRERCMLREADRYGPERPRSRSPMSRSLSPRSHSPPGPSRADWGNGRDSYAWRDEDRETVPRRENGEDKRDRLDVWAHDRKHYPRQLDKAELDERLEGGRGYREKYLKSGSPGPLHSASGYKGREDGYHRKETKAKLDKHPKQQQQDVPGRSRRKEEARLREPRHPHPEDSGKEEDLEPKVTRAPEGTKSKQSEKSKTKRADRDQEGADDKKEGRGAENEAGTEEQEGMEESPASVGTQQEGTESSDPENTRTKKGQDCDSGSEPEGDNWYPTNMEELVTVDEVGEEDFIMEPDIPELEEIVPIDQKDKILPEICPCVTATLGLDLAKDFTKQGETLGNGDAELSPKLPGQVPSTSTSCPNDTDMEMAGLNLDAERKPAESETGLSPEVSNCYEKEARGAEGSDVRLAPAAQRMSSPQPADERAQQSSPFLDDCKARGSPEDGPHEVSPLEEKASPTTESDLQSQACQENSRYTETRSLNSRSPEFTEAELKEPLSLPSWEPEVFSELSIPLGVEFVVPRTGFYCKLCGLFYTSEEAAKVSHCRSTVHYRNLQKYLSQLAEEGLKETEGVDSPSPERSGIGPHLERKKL
Kind of test: co-IP; HeLa cells co-transfected with 8xHis-RBM20 and one kinase construct, lysates 48 h later; anti-His-tag antibody coupled to resin (Pierce Co-IP kit) captured RBM20; blots with anti-RBM20, anti-SRPK1, anti-CLK1 and anti-HA-tag antibodies; control resin without antibody.

Test [2] addresses HA-tagged AKT2 (pcDNA3-Myr-HA-Akt2) (UniProt P31751). Nature of the test: co-IP; reciprocal: HeLa cells co-transfected with 8xHis-RBM20 and one kinase construct; SRPK1, CLK1 or HA-tagged AKT2 used as bait (antibody-coupled resin, Pierce Co-IP kit), RBM20 detected by blot; control resin without antibody.
Test [3] concerns the target SR protein-specific kinase 1 (SRPK1) (UniProt Q96SB4). Described as above.
Test [4] addresses cdc2-like kinase 1 (CLK1) (UniProt P49759). The description is as above.

Results are given in words; binding and its absence hold for the method and conditions named. Binding seen in cells or lysates may run through a third protein. Some binding calls cover weakened binding; strength is not graded here. Tags and fused reporters may be left off the sequences shown.

In the case of “HA-tagged AKT2 (pcDNA3-Myr-HA-Akt2) (from UniProt P31751 1-481) (enzyme)”, the binding result in test [1] was “binds”.

Consider “SR protein-specific kinase 1 (SRPK1) (from UniProt Q96SB4 1-655) (enzyme)”, for which, in test [1], the binding entry is on record as “binds”. With “cdc2-like kinase 1 (CLK1) (from UniProt P49759 1-484) (enzyme)”, the binding result in test [1] was “binds”.

B1: RNA binding motif 20 (RBM20), wild type, 8xHis-tagged (protein, UniProt E9PT37 1-1207)
chain: T1 sequence
Turning to B1, the binding result in test [2], in test [3] and in test [4] was “binds” in each case.
